Experimental data as given in patent US10022377B2, “Method of treating hypertension” (Cipla Limited, priority 2015, dated 2018).

Test system: rats with monocrotaline induced pulmonary arterial hypertension
Experiment: Hemodynamic evaluation in anesthetized rats treated with monocrotaline to induce pulmonary arterial hypertension
Assay type: in vivo, Sprague-Dawley rats
Conditions: 28 days, MCT rats, mean ± SEM
Method: The effects of sildenafil and anagrelide were evaluated in rats with monocrotaline induced pulmonary arterial hypertension. Male Sprague-Dawley rats were orally administered vehicle (variable, see below), anagrelide (1 mg/kg given once daily for 28 days or 2 mg/kg total daily dose, divided into a BID regimen given every day for 28 days starting on Day 1), or sildenafil (30 mg/kg, administered twice daily) (n=10 in each group). Rats received a single injection of monocrotaline (60 mg/kg, s.c.) on Study Day 1. On the twenty-eighth day following monocrotaline dosing, the rats were anesthetized with ketamine/xylazine for terminal monitoring of pulmonary and systemic arterial pressures along with heart rate. The study design for the test article and vehicle administrations are detailed below: […]

| Compound | Body Weight (Anagrelide 1 mg/kg once daily oral) [kg] | Body Weight (Anagrelide 2 mg/kg/day bid oral) [kg] | Body Weight (Sildenafil 60 mg/kg/day bid oral) [kg] |
| --- | --- | --- | --- |
| O=C1CN2Cc3c(ccc(Cl)c3Cl)N=C2N1 [Anagrelide, anagrelide] | 0.32 ± 0.02 | 0.31 ± 0.01 | – |
| CCCc1nn(C)c2c(=O)[nH]c(-c3cc(S(=O)(=O)N4CCN(C)CC4)ccc3OCC)nc12 [Sildenafil] | – | – | 0.32 ± 0.01 |
